## Results of single-concentration screens

Protein sequences, listed by entry. Tags and fused reporters are not part of them.
UniProt P9WPC5, whole entry: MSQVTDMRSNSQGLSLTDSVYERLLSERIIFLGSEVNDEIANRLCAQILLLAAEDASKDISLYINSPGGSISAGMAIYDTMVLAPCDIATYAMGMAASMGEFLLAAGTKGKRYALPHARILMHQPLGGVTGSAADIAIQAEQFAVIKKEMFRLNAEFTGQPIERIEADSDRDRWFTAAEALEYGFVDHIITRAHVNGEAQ
UniProt P9WPC3, whole entry partner: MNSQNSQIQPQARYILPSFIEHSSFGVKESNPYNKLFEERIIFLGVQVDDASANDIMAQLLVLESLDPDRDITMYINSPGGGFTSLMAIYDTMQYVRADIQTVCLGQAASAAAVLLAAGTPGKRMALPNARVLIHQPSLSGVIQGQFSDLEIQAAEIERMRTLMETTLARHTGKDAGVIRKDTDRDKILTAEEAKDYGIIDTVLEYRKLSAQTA
UniProt P9WFT3, whole entry: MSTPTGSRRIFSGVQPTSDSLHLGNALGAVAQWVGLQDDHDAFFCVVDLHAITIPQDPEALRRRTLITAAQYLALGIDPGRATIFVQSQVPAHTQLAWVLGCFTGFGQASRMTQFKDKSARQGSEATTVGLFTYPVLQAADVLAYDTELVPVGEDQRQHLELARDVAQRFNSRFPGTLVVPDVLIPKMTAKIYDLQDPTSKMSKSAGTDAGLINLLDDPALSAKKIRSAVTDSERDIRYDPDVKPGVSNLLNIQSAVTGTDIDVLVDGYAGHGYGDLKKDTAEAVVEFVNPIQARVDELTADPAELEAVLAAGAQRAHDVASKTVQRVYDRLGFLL

From ChEMBL document CHEMBL3988442, “University of Dundee, Small-Polar-MMV Screening Library” (2021).

ClpP1P2: 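Protease assay of ClpP1P2, read by the AMC dye that it sets free. Target: ClpP1P2, Mycobacterium tuberculosis (UniProt P9WPC5 and UniProt P9WPC3). Tested at 50 µM. Higher reads as stronger inhibition, judged from the few compounds that gave an IC50. Most other retested compounds had strongly negative values. About 69,000 compounds were tested under these conditions; 0.015% (about 10) showed 50% or more at least once.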
MtTrpRS: 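Tryptophan-tRNA ligase, Mycobacterium tuberculosis (UniProt P9WFT3). Enzyme assay of tryptophanyl-tRNA synthetase; the read-out is not stated. Compounds at 10 µM. Direction is not recorded; retested compounds ran higher, which suggests that high means inhibition. About 65,000 compounds were tested under these conditions; 0.098% (about 64) showed 50% or more at least once.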

Results are given as percent effect.
The record does not define 0% and 100%; most values in the screen are far below 50% and negative numbers occur (in some assays of this library far below -100).
Compounds were drawn at random from those tested, without regard to their results.
A dash means the value is not listed here; it may have been measured.

structure: Cc1ccc(-c2cc(CNC(=O)N3CCOC(C)C3)on2)cc1 (stereo unspecified)
ClpP1P2: 6.082%
MtTrpRS: -3.013%

structure: CC(C)NC(=O)CC1CC2(CCN(CC3CC3)CC2)Oc2ccccc21 (stereo unspecified)
ClpP1P2: 15.03%
MtTrpRS: 1.163%

structure: O=C(C1CCCC1)N1CCC(C2CCN(Cc3ccc(Cl)cc3)C2)CC1 (stereo unspecified)
ClpP1P2: -8.824%
MtTrpRS: -1.341%

structure: CC(C)n1cnnc1CNC(=O)c1cnn(Cc2ccccc2)c1
ClpP1P2: 0.4903%
MtTrpRS: -3.199%

structure: CCn1c(CN(C)C)nnc1C1CCN(c2ccnc(C)c2)CC1
ClpP1P2: 7.424%
MtTrpRS: -1.706%

structure: COCCO[C@H]1CCN(c2cc(OC)ncn2)[C@H]1Cc1ccncc1
ClpP1P2: -5.361%
MtTrpRS: -2.876%

structure: COc1ccccc1C(C(=O)O)N1CCCN(C2CCCC2)CC1 (stereo unspecified)
ClpP1P2: -1.347%
MtTrpRS: 11.3%

structure: CCCc1nc(N(C)Cc2ccco2)c2c(n1)c(C)nn2CC
ClpP1P2: -14.83%
MtTrpRS: 4.339%

structure: CC(C)n1cc(-c2c(C#N)c(N)nc3c2COCC3)cn1
ClpP1P2: -4.884%
MtTrpRS: -3.376%

structure: COc1c(NS(=O)(=O)c2ccc(C)c(C)c2)c(C)nn1C
ClpP1P2: 4.631%
MtTrpRS: -0.2018%

structure: COc1c(C)cnc(CN(C)C(=O)c2ccccn2)c1C
ClpP1P2: -1.878%
MtTrpRS: -3.011%

structure: CNc1ccnc(NCCC(=O)Nc2ccccc2OC)n1
ClpP1P2: -10.3%
MtTrpRS: -3.543%

structure: COCCS(=O)(=O)NCc1ccc(N(C)C)c(C)c1
ClpP1P2: -0.7911%
MtTrpRS: -2.12%

structure: COC1CCN(CCNC(=O)NC(C)c2cccc(Cl)c2)CC1 (stereo unspecified)
ClpP1P2: -3.682%
MtTrpRS: -2.082%

structure: COc1cccc(-c2noc(-c3ccc(NCC(C)O)nc3)n2)c1OC (stereo unspecified)
ClpP1P2: -1.784%
MtTrpRS: -5.093%

structure: O=C(c1cccs1)N1CCC2(CC1)CC(Oc1ccccc1)CO2 (stereo unspecified)
ClpP1P2: 2.98%
MtTrpRS: 0.6865%

structure: CC(C)Nc1cc(N2CCN(Cc3ccccc3)C(CCO)C2)ncn1 (stereo unspecified)
ClpP1P2: -13.4%
MtTrpRS: 0.457%

structure: Cc1ccoc1C(=O)N1C[C@H](OCc2cccnc2)[C@H]2OCCC[C@H]21
ClpP1P2: 6.533%
MtTrpRS: -0.3487%

structure: COc1cccc(CC2CCCN2CCCO)c1 (stereo unspecified)
ClpP1P2: 8.401%
MtTrpRS: 3.131%

structure: O=C(NCCc1csc(-c2ncccn2)n1)c1cnn2c1CCCC2
ClpP1P2: -6.445%
MtTrpRS: 5.914%

structure: COc1nc2c(cc1C(=O)NCc1nc(CSC)no1)CCC2
ClpP1P2: -47.32%
MtTrpRS: 2.166%

structure: O=C1CCC2(CCCN(c3ncc(F)cn3)CC2)N1Cc1ccccc1 (stereo unspecified)
ClpP1P2: -3.282%
MtTrpRS: 1.673%

structure: CNc1[nH]nc(N)c1C(=O)Nc1ccccc1
ClpP1P2: 6.945%
MtTrpRS: -4.203%

structure: Cc1ccc(CN2CCNC(=O)C2CC(=O)N2CCSCC2)o1 (stereo unspecified)
ClpP1P2: -8.265%
MtTrpRS: -0.6734%

structure: COCCN(C)C[C@@H]1CN(C(=O)c2ccc(C)cc2)C[C@@H]1CO
ClpP1P2: 2.11%
MtTrpRS: 1.321%

structure: CN(CCOc1ccc(C#N)cc1)CC1CC1
ClpP1P2: 11.84%
MtTrpRS: -1.782%

structure: CN1CCCCC[C@@H]2[C@@H]1[C@H](c1ccccc1)CN2C(=O)c1cccnc1
ClpP1P2: 12.22%

structure: Cc1cccc(CN2C[C@@H]3OCCN(CC(=O)N(C)C)[C@@H]3C2)c1
ClpP1P2: 3.068%

structure: Cc1sc(-c2ccco2)nc1C(=O)N(CC1CCOC1)C1CC1 (stereo unspecified)
ClpP1P2: -3.465%
MtTrpRS: -4.015%

structure: CCN(Cc1nc(COC)no1)Cc1cccnc1NC
ClpP1P2: -5.521%
MtTrpRS: -0.06345%

structure: Cn1cc(CNc2ccc(CCO)cc2)c(-c2ccncc2)n1
ClpP1P2: -1.508%
MtTrpRS: 10.48%

For reference, 3 entries once more:

structure,ClpP1P2,MtTrpRS
O=C(NCCc1csc(-c2ncccn2)n1)c1cnn2c1CCCC2,-6.445%,5.914%
CN1CCCCC[C@@H]2[C@@H]1[C@H](c1ccccc1)CN2C(=O)c1cccnc1,12.22%,-
CC(C)Nc1cc(N2CCN(Cc3ccccc3)C(CCO)C2)ncn1 (stereo unspecified),-13.4%,0.457%